The chains behind the UniProt entries cited, without tags or fusion partners. Where a name states a change or a piece, a line headed by the entry shows the natural chain unless it says otherwise.
UniProt P42768: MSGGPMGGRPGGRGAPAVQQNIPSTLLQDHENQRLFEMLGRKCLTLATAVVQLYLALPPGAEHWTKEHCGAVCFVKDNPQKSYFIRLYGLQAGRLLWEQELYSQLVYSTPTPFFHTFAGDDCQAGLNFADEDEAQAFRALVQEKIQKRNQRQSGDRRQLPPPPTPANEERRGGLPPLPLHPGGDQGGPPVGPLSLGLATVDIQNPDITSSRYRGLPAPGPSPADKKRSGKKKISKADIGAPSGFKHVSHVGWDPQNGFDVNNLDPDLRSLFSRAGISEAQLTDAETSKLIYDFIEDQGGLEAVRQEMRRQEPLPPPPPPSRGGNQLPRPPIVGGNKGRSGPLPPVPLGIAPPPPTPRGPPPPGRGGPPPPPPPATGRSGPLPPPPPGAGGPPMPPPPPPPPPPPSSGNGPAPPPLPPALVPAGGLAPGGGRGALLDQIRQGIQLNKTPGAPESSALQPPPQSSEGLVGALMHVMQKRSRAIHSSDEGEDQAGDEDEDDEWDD
UniProt P60953: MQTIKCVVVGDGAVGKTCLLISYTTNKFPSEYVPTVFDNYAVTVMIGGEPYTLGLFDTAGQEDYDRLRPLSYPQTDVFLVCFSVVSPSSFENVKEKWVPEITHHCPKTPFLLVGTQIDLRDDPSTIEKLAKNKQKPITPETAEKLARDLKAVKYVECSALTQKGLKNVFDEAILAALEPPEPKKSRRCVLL

According to PMC9576799, “Discovery of small molecule inhibitors that effectively disrupt IQGAP1-Cdc42 interaction in breast cancer cells” (Scientific Reports, 2022):

Biological target: GST-WASP-GBD (GTPase-binding-domain) (UniProt P42768)
Experiment: pull-down; MDA-MB-231 lysates (20 mM Hepes pH 7.4, 150 mM NaCl, 1% NP-40, 20 mM NaF, 20 uM GTP) incubated with GST (control) or GST-WASP-GBD for 2 h at 4 °C, collected with glutathione-Sepharose, blot with anti-Cdc42; cells serum starved, then DMSO or 50 µM compound for 2 h, with or without 100 ng/mL EGF for 10 min; only the target purified

In the case of “endogenous Cdc42 (MDA-MB-231) (from UniProt P60953 1-191)”, the binding is reported as “binds”.

No constants are given. Whether binding was seen depends on the method and setting. In cells and extracts the contact can be indirect. A result given as binding can be weak or reduced; the word gives no strength.
